± gives the uncertainty stated by the source. This is one part of the list.

In one experiment the test system is Acinetobacter baumannii Mahidol. The experiment is described as follows: percent growth relative to DMSO-treated control; higher = less growth inhibition. The conditions noted are these: 10 µM; 18 h.
For `O=C(Nc1ccc(N2CCNCC2)cc1)c1ccn2ncc(-c3cccc(Cl)c3)c2n1`, the percent growth was determined as 98.1 ± 3.2%.
With `Cc1cnc(CCNC(=O)c2cc(-c3ccc(Cl)cc3)cs2)[nH]1`, the percent growth was 86.3 ± 7.8%.
Same read-out and setting: in the case of `COC(=O)c1c(NC(=O)c2cc3ccccc3oc2=O)sc2c1CCN(Cc1ccccc1)C2` it was 75.7 ± 40%.
For `Cc1ccc2nc(C)c(-c3ccn(Cc4ccccc4)n3)n2c1`, the percent growth is 98.9 ± 7.8%.
The same measure, in the same setting: in the case of `Cc1cccnc1NC(=O)c1cccc(OCc2c(C)noc2C)c1` it was 92.7 ± 7.7%; in that of `Cc1cnc(N2CCN[C@@H](Cc3ccccc3)C2)nc1Oc1ccc(-n2ccnc2)cc1`, 95.5 ± 5.1%.
Compound `COc1ccc(-c2cnc3cnc(-c4cccc(OC(C)C)c4)cn23)cc1` had a percent growth of 97.5 ± 22%.
The same measure, in the same setting: in the case of `CN1CCC(NCc2cccc(-c3ccc(S(=O)(=O)NCc4ccccc4)cc3)c2)CC1` it was 92.8 ± 3.9%; in that of `Cc1nnc(NCc2cccc(Cl)c2)c2ccccc12`, 90.3 ± 12%; in that of `c1ccc(Oc2ccc(-c3cc(N4CCNCC4)[nH]n3)cc2)cc1`, 108 ± 9.1%.
The compound `NS(=O)(=O)c1cccc(-c2ccc3ncc(N4CCOCC4)nc3c2)c1` had a percent growth of 93.7 ± 7.1%.
In turn, `O=C(NCCN1CCCC1)c1cc(NCCCCN2CCC(F)(F)CC2)nc2ccc(Cl)cc12` displayed a percent growth of 97.2 ± 7%.
Still for that read-out and setting: then `COC(=O)Nc1nc2cc(C(=O)c3ccccc3)ccc2[nH]1`, with 94 ± 28%; and `Nc1ncnc2[nH]nc(Cc3cccc4ccccc34)c12`, with 90.6 ± 9%.
Still for that read-out and setting: in the case of `CC(C)(C)n1nc(Cc2ccc(F)c(Cl)c2)c2c(N)ncnc21` it was 95.4 ± 9.9%; in that of `Cc1cc(Nc2ccncc2)n2nc(C)c(-c3ccccc3Cl)c2n1`, 113 ± 30%.
Take `O=C1N(Cc2cc3ccccc3s2)CC2CN(Cc3ccccc3)CCN12` (stereo unspecified): the percent growth was determined as 80.4 ± 26%.
Still for that read-out and setting: then `N#Cc1ccc(-c2cnc(N)c(-c3ccc(C(N)=O)cc3)n2)cc1`, with 87.3 ± 9.5%.
`Cc1ccc(-c2nc(CN(Cc3ccccn3)C(C)C)cs2)o1` showed a percent growth of 105 ± 13%.
For the compound `CC1CS(=O)(=O)CCN1/N=C/c1ccc([N+](=O)[O-])o1` (stereo unspecified), the percent growth was found to be 94.6 ± 7.8%.
Still for that read-out and setting: in the case of `CC(C)n1nc(-c2cc3c(Cl)cccc3[nH]2)c2c(N)ncnc21` it was 92.3 ± 15%.
`COCC(C)NC(=O)CSc1ncnc2sc(-c3ccccc3)cc12` (stereo unspecified): the percent growth came out at 69 ± 21%.
The compound `O=C(C1CCN(c2nnnn2-c2ccccc2)CC1)N1CCc2ccccc2C1` showed a percent growth of 85.5 ± 5.5%.
In turn, `COc1cc(NC(=O)Cc2nn(C)c(=O)c3ccccc23)ccc1Cl` yielded a percent growth of 96.6 ± 11%.
Compound `COc1ccc(-c2nc(-c3cccc(NC(=O)Cc4ccc(F)cc4)c3)no2)cc1OC` displayed a percent growth of 75.5 ± 40%.
`CC1CCCCN1C(=O)NCCc1coc(-c2ccc(F)cc2)n1` (stereo unspecified) returned a percent growth of 77.9 ± 26%.
The compound `Cc1nc2ccccn2c1C(=O)NCc1ccc(Cl)cc1` showed a percent growth of 81.2 ± 75%.
`O=C(COc1cccc(F)c1)Nc1nc(-c2ccccn2)cs1` returned a percent growth of 84.7 ± 26%.
The same measure, in the same setting: then `CCOc1ccc2cc(-c3nn(C(C)(C)C)c(N)c3C(N)=O)cnc2c1`, with 78.9 ± 51%; and `Oc1c(I)cc(I)c2cccnc12`, with 5.11 ± 7.7%; and `FC(F)(F)c1ccc(N(c2cccnc2)C2CCN(c3ccc(C(F)(F)F)cn3)CC2)cc1`, with 96.5 ± 4%.
Compound `COc1ccc(-c2cncc3ccc(C(=O)NCCCn4ccnc4)nc23)cc1` returned a percent growth of 97.7 ± 10%.
On to `Cc1cc2nc(NC(=O)C(C)(C)C)nc(Cl)c2n1Cc1ccc(Cl)cc1`, for which the percent growth was determined as 65.1 ± 23%.
`CNc1nnc(Sc2cnn(-c3ccccc3)c(=O)c2Cl)s1`: the percent growth stood at 100 ± 26%.
`CCc1ccc([C@@H]2C[C@H](C(F)(F)F)n3ncc(C(=O)NCc4ccc(OC)cc4)c3N2)cc1` registered a percent growth of 87.5 ± 19%.
On the same count and under the same terms, then `Nc1ncnc2c1ncn2[C@@H]1O[C@H](COS(=O)(=O)NC(=O)c2ccccc2O)[C@@H](O)[C@H]1O`, with 98.1 ± 6.8%; and `Cc1noc(C)c1C(=O)N1CCCC(c2[nH]c3c(C)cccc3c2-c2ccncc2)C1` (stereo unspecified), with 123 ± 31%; and `O=C(NC1CC1)c1ccc(CSCc2ccccc2Cl)o1`, with 85.2 ± 9.2%.

In the next experiment the test system is Acinetobacter baumannii Naval-81. The experiment is described as above. The conditions noted are these: 10 µM; 18 h.
In turn, `O=C(Nc1ccc(N2CCNCC2)cc1)c1ccn2ncc(-c3cccc(Cl)c3)c2n1` showed a percent growth of 116 ± 28%.
On to `Cc1cnc(CCNC(=O)c2cc(-c3ccc(Cl)cc3)cs2)[nH]1`, for which the percent growth came out at 75.5 ± 23%.
As to `COC(=O)c1c(NC(=O)c2cc3ccccc3oc2=O)sc2c1CCN(Cc1ccccc1)C2`, the percent growth was 86.2 ± 8.1%.
Compound `Cc1ccc2nc(C)c(-c3ccn(Cc4ccccc4)n3)n2c1` yielded a percent growth of 75.5 ± 19%.
`Cc1cccnc1NC(=O)c1cccc(OCc2c(C)noc2C)c1` gave a percent growth of 96.5 ± 21%.
`Cc1cnc(N2CCN[C@@H](Cc3ccccc3)C2)nc1Oc1ccc(-n2ccnc2)cc1`: the percent growth worked out at 81.2 ± 6.6%.
As to `COc1ccc(-c2cnc3cnc(-c4cccc(OC(C)C)c4)cn23)cc1`, the percent growth worked out at 85.2 ± 13%.
As for `CN1CCC(NCc2cccc(-c3ccc(S(=O)(=O)NCc4ccccc4)cc3)c2)CC1`, the percent growth was 89.7 ± 4.8%.
Consider `Cc1nnc(NCc2cccc(Cl)c2)c2ccccc12`, for which the percent growth worked out at 88.2 ± 9.7%.
Regarding `c1ccc(Oc2ccc(-c3cc(N4CCNCC4)[nH]n3)cc2)cc1`, the percent growth came out at 92.7 ± 6.5%.
Turning to `NS(=O)(=O)c1cccc(-c2ccc3ncc(N4CCOCC4)nc3c2)c1`, the percent growth came to 101 ± 19%.
On to `O=C(NCCN1CCCC1)c1cc(NCCCCN2CCC(F)(F)CC2)nc2ccc(Cl)cc12`, for which the percent growth turned out to be 85.1 ± 9.9%.
Still for that read-out and setting: in the case of `COC(=O)Nc1nc2cc(C(=O)c3ccccc3)ccc2[nH]1` it was 112 ± 46%; in that of `Nc1ncnc2[nH]nc(Cc3cccc4ccccc34)c12`, 92.9 ± 16%.
`CC(C)(C)n1nc(Cc2ccc(F)c(Cl)c2)c2c(N)ncnc21` showed a percent growth of 96.5 ± 10%.
Same read-out and setting: then `Cc1cc(Nc2ccncc2)n2nc(C)c(-c3ccccc3Cl)c2n1`, with 89.8 ± 6.1%.
Still for that read-out and setting: in the case of `O=C1N(Cc2cc3ccccc3s2)CC2CN(Cc3ccccc3)CCN12` (stereo unspecified) it was 83.4 ± 27%; in that of `N#Cc1ccc(-c2cnc(N)c(-c3ccc(C(N)=O)cc3)n2)cc1`, 85.1 ± 7.2%.
In turn, `Cc1ccc(-c2nc(CN(Cc3ccccn3)C(C)C)cs2)o1` displayed a percent growth of 100 ± 24%.
Still for that read-out and setting: then `CC1CS(=O)(=O)CCN1/N=C/c1ccc([N+](=O)[O-])o1` (stereo unspecified), with 100 ± 22%; and `CC(C)n1nc(-c2cc3c(Cl)cccc3[nH]2)c2c(N)ncnc21`, with 98.8 ± 6.8%.
The same measure, in the same setting: in the case of `COCC(C)NC(=O)CSc1ncnc2sc(-c3ccccc3)cc12` (stereo unspecified) it was 128 ± 61%; in that of `O=C(C1CCN(c2nnnn2-c2ccccc2)CC1)N1CCc2ccccc2C1`, 96.1 ± 4.1%; in that of `COc1cc(NC(=O)Cc2nn(C)c(=O)c3ccccc23)ccc1Cl`, 95.2 ± 21%.
The same measure, in the same setting: then `COc1ccc(-c2nc(-c3cccc(NC(=O)Cc4ccc(F)cc4)c3)no2)cc1OC`, with 94.9 ± 28%; and `CC1CCCCN1C(=O)NCCc1coc(-c2ccc(F)cc2)n1` (stereo unspecified), with 95.3 ± 4.8%.
On to `Cc1nc2ccccn2c1C(=O)NCc1ccc(Cl)cc1`, for which the percent growth was 103 ± 32%.
Compound `O=C(COc1cccc(F)c1)Nc1nc(-c2ccccn2)cs1` gave a percent growth of 91.6 ± 6.3%.
`CCOc1ccc2cc(-c3nn(C(C)(C)C)c(N)c3C(N)=O)cnc2c1`: the percent growth turned out to be 85.7 ± 29%.
`Oc1c(I)cc(I)c2cccnc12` yielded a percent growth of 82 ± 12%.
Take `FC(F)(F)c1ccc(N(c2cccnc2)C2CCN(c3ccc(C(F)(F)F)cn3)CC2)cc1`: the percent growth is 93.4 ± 13%.
In turn, `COc1ccc(-c2cncc3ccc(C(=O)NCCCn4ccnc4)nc23)cc1` had a percent growth of 104 ± 23%.
`Cc1cc2nc(NC(=O)C(C)(C)C)nc(Cl)c2n1Cc1ccc(Cl)cc1` showed a percent growth of 99.1 ± 18%.
For `CNc1nnc(Sc2cnn(-c3ccccc3)c(=O)c2Cl)s1`, the percent growth was found to be 59.4 ± 55%.
Regarding `CCc1ccc([C@@H]2C[C@H](C(F)(F)F)n3ncc(C(=O)NCc4ccc(OC)cc4)c3N2)cc1`, the percent growth is 104 ± 6.4%.
`Nc1ncnc2c1ncn2[C@@H]1O[C@H](COS(=O)(=O)NC(=O)c2ccccc2O)[C@@H](O)[C@H]1O` gave a percent growth of 87 ± 6.3%.
`Cc1noc(C)c1C(=O)N1CCCC(c2[nH]c3c(C)cccc3c2-c2ccncc2)C1` (stereo unspecified) yielded a percent growth of 80.7 ± 2.7%.
Turning to `O=C(NC1CC1)c1ccc(CSCc2ccccc2Cl)o1`, the percent growth stood at 102 ± 7.3%.

The values above are taken from the supplement of paper PMC6821926, “Diaminoquinazoline MMV675968 from Pathogen Box inhibits Acinetobacter baumannii growth through targeting of dihydrofolate reductase” (Scientific Reports, 2019).
